For at least one entry, the source does not settle the construct or the ends of the probe. At least one verdict rests on a figure or table, not on a statement of the authors. Tags and fusion partners may be left off the protein sequences shown.

The series concerns T1, SMARCAD1 V974A (human).
T1 sequence (looked up): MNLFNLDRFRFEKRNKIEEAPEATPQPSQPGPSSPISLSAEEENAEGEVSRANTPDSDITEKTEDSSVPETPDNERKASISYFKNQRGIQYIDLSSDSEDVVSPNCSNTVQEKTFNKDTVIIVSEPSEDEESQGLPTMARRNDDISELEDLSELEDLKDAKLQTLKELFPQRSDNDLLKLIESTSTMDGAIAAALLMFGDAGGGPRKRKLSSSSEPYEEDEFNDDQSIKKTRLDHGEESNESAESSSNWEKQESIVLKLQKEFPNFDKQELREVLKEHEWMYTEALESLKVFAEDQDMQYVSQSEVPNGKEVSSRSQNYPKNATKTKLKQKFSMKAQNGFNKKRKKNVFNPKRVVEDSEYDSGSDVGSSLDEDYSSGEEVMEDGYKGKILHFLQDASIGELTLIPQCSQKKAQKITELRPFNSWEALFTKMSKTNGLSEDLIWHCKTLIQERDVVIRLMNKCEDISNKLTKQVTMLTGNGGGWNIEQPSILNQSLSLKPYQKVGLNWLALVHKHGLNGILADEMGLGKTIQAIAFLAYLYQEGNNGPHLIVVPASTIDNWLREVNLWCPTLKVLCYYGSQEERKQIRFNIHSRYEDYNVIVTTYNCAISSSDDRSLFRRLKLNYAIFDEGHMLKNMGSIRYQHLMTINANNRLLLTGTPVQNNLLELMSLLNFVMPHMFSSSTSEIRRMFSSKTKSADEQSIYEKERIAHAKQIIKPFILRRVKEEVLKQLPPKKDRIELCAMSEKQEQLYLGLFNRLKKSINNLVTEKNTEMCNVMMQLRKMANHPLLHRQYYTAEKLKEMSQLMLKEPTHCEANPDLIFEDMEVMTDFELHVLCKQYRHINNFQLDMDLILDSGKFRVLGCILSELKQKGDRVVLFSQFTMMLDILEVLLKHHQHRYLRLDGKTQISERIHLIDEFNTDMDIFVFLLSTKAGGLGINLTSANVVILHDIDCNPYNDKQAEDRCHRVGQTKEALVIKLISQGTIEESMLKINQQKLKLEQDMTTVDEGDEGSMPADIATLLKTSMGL
The series can be described thus: EMSA. The settings on record: 1 uM protein, 50 nM substrate; residues 1-1028.

Consider “GCAGCTGGCACGACAGGTATGAATC (double strand) [dsDNAshort]”, for which the binding result is reported as “binds”.

These data come from doi:10.1101/2024.09.13.612941.
